Measured values published in PubChem BioAssay AID2685 (National Center for Advancing Translational Sciences (NCATS), 2010).
The list shows a part of the results. The main result of the screen is listed elsewhere. These columns were measured beside it and carry no call. Compounds called inactive in the main read-out are mostly missing here. Words in brackets tell the shape of the fitted curve; partial curves, single points and poor fits give uncertain potencies.

Assay: qHTS Assay for Lipid Storage Modulators in Drosophila S3 Cells;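 for cell number change: cells counted by Cell Tracker Red CMTPX staining in the red channel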
Details: BODIPY lipid droplet fluorescence, 18-24 h; for cell number change: measured here: cell count max response, cells fed with added oleic acid
How it was run: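 Laser-scanning cytometry quantifies lipid droplet accumulation (500–530 nm total intensity; droplet/cell object ratio) in oleic acid-fed (400 uM added) Drosophila S3 cells treated with a concentration series. 20 uM Triacsin C defined 100% inhibition.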

[1] = measured here: lipid fluorescence (Fed channel) AC50, cells fed with added oleic acid
[2] = measured here: cell number channel AC50, cells fed with added oleic acid

Compound | cell number change [%] | AC50 [1] | AC50 [2]
CN(C)c1ccc(C(C(=O)NC2CCCCC2)N(Cc2ccco2)C(=O)c2snc(C(N)=O)c2N)cc1 (configuration not stated) | 4.58 | 1.16 µM [falling, single point] | –
O=C1Nc2ccc(S(=O)(=O)NCCCO)c3cccc1c23 | 42.5 | 5.8 µM [rising, single point] | 0.731 µM [rising, full curve]
CCCCCCC(=O)Nc1ccc(C(=O)N2CCCC2)cc1 | 22.2 | – | 0.0326 µM [falling, full curve, poor fit]
c1ccc2nc(-c3nc4ccccc4[nH]3)ccc2c1 | – | 1.46 µM [rising, full curve] | 1.3 µM [rising, full curve]
N#CCCN(Cc1cccnc1)S(=O)(=O)c1ccc(S(=O)(=O)NC2CCCCC2)cc1 | -34.4 | – | 0.291 µM [falling, full curve]
COc1ccc(OC)c(/C=N/Nc2cc(C)nc(N3CCOCC3)n2)c1 | 6.83 | – | –
COc1ccc(-n2c(C)c(C(C)=O)c3cc(OC(C)=O)ccc32)cc1 | 12.5 | – | –
O=S(=O)(c1ccc2ccccc2c1)N(CC(O)COCc1ccco1)c1ccccc1 (configuration not stated) | 0.435 | 0.164 µM [falling, full curve, poor fit] | 0.146 µM [falling, full curve, poor fit]
Cc1cccc(N2CCN(CC(=O)N(C3CCCC3)C3CCS(=O)(=O)C3)CC2)c1C (configuration not stated) | -33.2 | 0.259 µM [falling, full curve, poor fit] | –
COc1ccc(CC(=O)Nc2cccc(-c3csc(C)n3)c2)cc1 | 23.5 | – | –
CC(=C1C(=O)c2ccccc2C1=O)N1CCN(C/C=C/c2ccccc2)CC1 | – | 16.4 µM [falling, single point] | –
Cc1ccc(CNC(=O)CN2CCN(c3ccc(F)cc3)CC2)cc1 | -3.97 | 29.1 µM [rising, single point] | –
O=C(Nc1nnc(-c2ccc(F)cc2)o1)c1cc(Cl)sc1Cl | -50 | – | 1.64 µM [falling, partial curve]
CN(C)c1ccc(-c2noc(C3CCN(C(=O)Nc4ccc(Cl)cc4)CC3)n2)cc1 | 0.486 | 0.461 µM [rising, full curve] | –
CC(OC(=O)c1cccc(-n2cnnn2)c1)C(=O)Nc1cccc(Cl)c1 (configuration not stated) | 113 | 6.51 µM [falling, single point] | 6.51 µM [falling, single point]
COc1ccc(NS(=O)(=O)c2cccc3cccnc23)cc1Cl | 9.01 | – | –
COCC(=O)NCc1nc2ccccc2n1Cc1ccccc1F | 1.21 | 9.2 µM [rising, partial curve, poor fit] | –
COc1ccc(-c2cn3nc(SCC(=O)NC4CCCCC4)ccc3n2)cc1 | 16.6 | – | 0.0326 µM [rising, full curve, poor fit]
COc1ccc(NS(=O)(=O)c2c(F)cccc2F)cc1S(=O)(=O)N1CCOCC1 | 3.85 | 0.58 µM [falling, single point] | –
COc1cccc(NC(=O)N(CCN(C)C)C(C)c2cccnc2)c1 (configuration not stated) | 15.4 | – | –

Single records, as listed above. Values in the order: cell number change [%]	AC50 [1]	AC50 [2]
`COc1cccc(NC(=O)N(CCN(C)C)C(C)c2cccnc2)c1` (configuration not stated) in the list: 15.4	–	–
`COCC(=O)NCc1nc2ccccc2n1Cc1ccccc1F` in the list: 1.21	9.2 µM [rising, partial curve, poor fit]	–

Additional entries

Compound | cell number change [%] | AC50 [1] | AC50 [2]
CCn1c(=O)cc(OCC(=O)Nc2ccc(OC)c(OC)c2)c2ccccc21 | -4.33 | 6.51 µM [falling, single point] | –
Fc1ccc(Cn2c(SCc3ccc(F)c(C(F)(F)F)c3)nnc2C(F)(F)F)cc1 | 22.4 | 25.9 µM [rising, single point] | –
Cc1cc(N/N=C/c2ccc(N(C)C)cc2)nc(NCc2ccccc2)n1 | 11.8 | – | –
CC(=O)c1c(C(C)=O)c(C)n(-c2nc(-c3ccc(C)c(C)c3)c(C)s2)c1C | – | 0.58 µM [rising, single point] | 1.46 µM [rising, partial curve]
CCOC(=O)C(NC(=O)Nc1ccc(F)cc1F)(Oc1ccccc1)C(F)(F)F (configuration not stated) | 7.8 | – | –
CN(C(=O)CSc1nnc(-c2ccncc2)n1Cc1ccccc1)C1CCS(=O)(=O)C1 (configuration not stated) | -5.01 | – | –
O=C(NC1CCCC1)c1cc(-c2ccc(Cl)c(Cl)c2)on1 | 16.7 | – | –
COc1ccc(-c2c(C)n([O-])c(C)c(C)[n+]2=O)cc1OC | -18.3 | 18.4 µM [rising, single point] | –
C=CCn1c(-c2ccc3ncccc3c2)n[nH]c1=S | 23.3 | 3.26 µM [rising, partial curve] | 2.06 µM [rising, full curve, poor fit]
O=C(Nc1c(C(=O)N2CCOCC2)oc2ccccc12)c1cccc([N+](=O)[O-])c1 | -11.3 | – | 0.291 µM [rising, partial curve, poor fit]
Cc1[nH]c(=O)[nH]c(=O)c1S(=O)(=O)Nc1ccc(F)c([N+](=O)[O-])c1 | 15.6 | 29.1 µM [rising, single point] | –
COc1ccc(C(=O)c2cn[nH]c2-c2cc(Cl)ccc2O)cc1 | -2.8 | 18.4 µM [rising, single point] | –
COC(=O)CSc1n[nH]c(-c2cccnc2)n1 | -28 | – | 2.31 µM [falling, full curve, poor fit]
COc1ccc(CNC(=O)CN(C(=O)c2snc(C(N)=O)c2N)c2ccccc2F)cc1 | 17.3 | 6.51 µM [rising, single point] | –
CCOc1ccccc1NC(=O)COC(=O)Cc1ccsc1 | -10.3 | 29.1 µM [rising, single point] | –
Cc1sc2ncn(CC(=O)NCCCC(=O)NCc3ccc(F)cc3)c(=O)c2c1C | 5 | – | –
O=C(CCCCCNC(=O)c1ccccc1)C[N+](=O)[O-] | – | 0.00461 µM [falling, full curve, poor fit] | –
O=c1[nH]c(=S)[nH]nc1Cc1ccccc1 | 54.1 | 29.1 µM [rising, single point] | 20.6 µM [rising, partial curve]
CCOC(=O)c1ccc(NC(=O)c2cccc(S(=O)(=O)N3c4ccccc4CC3C)c2)s1 (configuration not stated) | -65.2 | 4.61 µM [falling, full curve] | 20.6 µM [falling, partial curve]
Cc1ccsc1C(=O)OCC(=O)c1ccc(OC(F)F)cc1 | -31.6 | 4.11 µM [falling, full curve, poor fit] | 4.61 µM [falling, full curve, poor fit]

Compound | cell number change [%] | AC50 [1] | AC50 [2]
CCCN(CCC)S(=O)(=O)c1ccc(N2CCCC2=O)c([N+](=O)[O-])c1 | 13.1 | – | –
CCOc1cc(C(=S)N2CCOCC2)cc(Br)c1OS(=O)(=O)c1ccccc1 | -0.493 | 23.1 µM [falling, single point] | –
CCc1ccccc1N(CC)C(=O)c1cn(C)c(=O)c2cc(OC)c(OC)cc12 | 82.3 | 4.11 µM [rising, single point] | 11.6 µM [rising, partial curve]
CCC(Oc1ccccc1)C(=O)OCC(=O)N(CC)c1c(N)n(Cc2ccccc2)c(=O)[nH]c1=O (configuration not stated) | -5.56 | 3.26 µM [rising, single point] | –
O=C1c2ccccc2C(=O)C12OC2c1ccc(Cl)cc1Cl (configuration not stated) | -30.6 | 0.58 µM [falling, full curve] | 29.1 µM [falling, single point]
Cc1ccc(/C=C/c2ccc(=O)n(Cc3ccccc3Cl)n2)cc1 | -143 | – | 2.59 µM [rising, single point]
CCOC(=O)c1[nH]cnc1C(=O)Nc1ccc([N+](=O)[O-])cc1 | 2.78 | – | –
C=CCNc1nc(Nc2ccc(OC)cc2OC)nc(OCC)n1 | -15.3 | 1.46 µM [rising, partial curve] | –
Cc1ccccc1CN(C)C(C)C(=O)Nc1ccccc1F (configuration not stated) | -58.8 | 29.1 µM [falling, single point] | 0.731 µM [falling, partial curve]
COc1cc(NC(=O)CSc2nnc(NC(C)C)s2)cc(OC)c1OC | – | 6.51 µM [rising, single point] | 0.58 µM [rising, partial curve]
C/C(=N\NC(=O)c1ccc2c(c1)OCO2)c1ccc(NC(=O)CCCC(=O)O)cc1 | -11.9 | 29.1 µM [rising, single point] | –
COc1ccc(CN2CCN(C(C)C(=O)NC(C)c3ccc(F)cc3)CC2)cc1F (configuration not stated) | 4.58 | 0.164 µM [rising, full curve, poor fit] | –
COc1ccc(CN(C)C(=O)c2sccc2-c2ccccc2)c(OC)c1 | 0.796 | – | –
COc1ccc(NC(=O)/C=C/c2cccc(F)c2)cn1 | 15.4 | 10.3 µM [rising, partial curve] | –
COc1ccc(CCNC(=O)CS(=O)(=O)c2cn(CC(=O)N3CCCC3)c3ccccc23)cc1OC | -36.2 | 29.1 µM [falling, single point] | 0.184 µM [falling, full curve, poor fit]
Cc1ccccc1C(=O)Nc1nc2n(n1)C(c1ccccc1)CC(=O)N2 (configuration not stated) | -43.5 | – | 0.058 µM [falling, full curve, poor fit]
Cc1ccccc1CC1(CO)CCCN(Cc2ccn[nH]2)C1 (configuration not stated) | -16.4 | 4.11 µM [falling, full curve] | –
Cc1cccc(C)c1NC(=O)NC1CCc2ccccc21 (configuration not stated) | 26.8 | 1.84 µM [rising, full curve, poor fit] | –
CCn1c(SCc2ccccc2)nnc1-c1ccc(S(=O)(=O)N2CCCCC2)cc1 | -17.7 | 7.31 µM [falling, partial curve, poor fit] | –
Cn1c(N)c(C(=O)COC(=O)CCC2CCCCC2)c(=O)n(C)c1=O | -46.4 | 0.00461 µM [falling, full curve, poor fit] | 0.82 µM [falling, full curve, poor fit]

Structures from the list above with an aryl methoxy group:
Compound | cell number change [%] | AC50 [1] | AC50 [2]
COc1ccc(OC)c(/C=N/Nc2cc(C)nc(N3CCOCC3)n2)c1 | 6.83 | – | –
COc1ccc(-n2c(C)c(C(C)=O)c3cc(OC(C)=O)ccc32)cc1 | 12.5 | – | –
COc1ccc(CC(=O)Nc2cccc(-c3csc(C)n3)c2)cc1 | 23.5 | – | –
COc1ccc(NS(=O)(=O)c2cccc3cccnc23)cc1Cl | 9.01 | – | –
COc1ccc(-c2cn3nc(SCC(=O)NC4CCCCC4)ccc3n2)cc1 | 16.6 | – | 0.0326 µM [rising, full curve, poor fit]
COc1ccc(NS(=O)(=O)c2c(F)cccc2F)cc1S(=O)(=O)N1CCOCC1 | 3.85 | 0.58 µM [falling, single point] | –
COc1cccc(NC(=O)N(CCN(C)C)C(C)c2cccnc2)c1 (configuration not stated) | 15.4 | – | –
CCn1c(=O)cc(OCC(=O)Nc2ccc(OC)c(OC)c2)c2ccccc21 | -4.33 | 6.51 µM [falling, single point] | –
COc1ccc(-c2c(C)n([O-])c(C)c(C)[n+]2=O)cc1OC | -18.3 | 18.4 µM [rising, single point] | –
COc1ccc(C(=O)c2cn[nH]c2-c2cc(Cl)ccc2O)cc1 | -2.8 | 18.4 µM [rising, single point] | –
COc1ccc(CNC(=O)CN(C(=O)c2snc(C(N)=O)c2N)c2ccccc2F)cc1 | 17.3 | 6.51 µM [rising, single point] | –
CCc1ccccc1N(CC)C(=O)c1cn(C)c(=O)c2cc(OC)c(OC)cc12 | 82.3 | 4.11 µM [rising, single point] | 11.6 µM [rising, partial curve]
C=CCNc1nc(Nc2ccc(OC)cc2OC)nc(OCC)n1 | -15.3 | 1.46 µM [rising, partial curve] | –
COc1cc(NC(=O)CSc2nnc(NC(C)C)s2)cc(OC)c1OC | – | 6.51 µM [rising, single point] | 0.58 µM [rising, partial curve]
COc1ccc(CN2CCN(C(C)C(=O)NC(C)c3ccc(F)cc3)CC2)cc1F (configuration not stated) | 4.58 | 0.164 µM [rising, full curve, poor fit] | –
COc1ccc(CN(C)C(=O)c2sccc2-c2ccccc2)c(OC)c1 | 0.796 | – | –
COc1ccc(NC(=O)/C=C/c2cccc(F)c2)cn1 | 15.4 | 10.3 µM [rising, partial curve] | –
COc1ccc(CCNC(=O)CS(=O)(=O)c2cn(CC(=O)N3CCCC3)c3ccccc23)cc1OC | -36.2 | 29.1 µM [falling, single point] | 0.184 µM [falling, full curve, poor fit]
